From the supplement of paper PMC4604168 (melanoma cell lines)
Some of the results follow. Repeats are few or missing, and single values can be far off.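 The apoptosis fraction was the count of cleaved-PARP antibody-stained nuclei relative to all DNA-stained nuclei, imaged in 1,536-well plates. Screening doses were set so most cells survived, and baseline and induced cleaved-PARP levels vary greatly across cell lines.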

Assays:
Experiment in all cases: cleaved PARP positive nuclei fraction relative to DMSO control; melanoma cells; higher = more apoptosis
Details in all cases: library dose: low library concentration; 72 h
[1] = test system: 501Mel
[2] = test system: A101D
[3] = test system: A2058
[4] = test system: A375
[5] = test system: C32
[6] = test system: CBRC013 (line from a melanoma biopsy)
[7] = test system: CBRC014 (line from a melanoma biopsy)
[8] = test system: CBRC016 (line from a melanoma biopsy)
[9] = test system: CBRC017 (line from a melanoma biopsy)

| Structure (SMILES) | cleaved PARP positive nuclei fraction [1] [%] | cleaved PARP positive nuclei fraction [2] [%] | cleaved PARP positive nuclei fraction [3] [%] | cleaved PARP positive nuclei fraction [4] [%] | cleaved PARP positive nuclei fraction [5] [%] | cleaved PARP positive nuclei fraction [6] [%] | cleaved PARP positive nuclei fraction [7] [%] | cleaved PARP positive nuclei fraction [8] [%] | cleaved PARP positive nuclei fraction [9] [%] |
| --- | --- | --- | --- | --- | --- | --- | --- | --- | --- |
| OCCn1cc(-c2cnc3nnn(Cc4ccc5ncccc5c4)c3n2)cn1 + O=C(Nc1ccccc1)c1cc([N+](=O)[O-])ccc1Cl [GW9662] (first compound 1 µM, partner dose 2 µM) | 220 | 53.5 | 55.4 | 222 | 42 | 124 | 101 | 184 | 82.2 |
| COCC[n+]1c2c(n(Cc3cnccn3)c1C)C(=O)c1ccccc1C2=O + N#Cc1c(O)c2c(-c3ccc(-c4ccccc4O)cc3)csc2[nH]c1=O [A769662] (first compound 0.0004 µM, partner dose 2 µM) | 227 | 114 | 67.8 | 191 | 92.8 | 76.8 | 94.2 | 53.5 | 57.5 |
| CC(C)(C)c1cnc(CSc2cnc(NC(=O)C3CCNCC3)s2)o1 + CCN(CC)CCCCNc1ncc2cc(-c3cc(OC)cc(OC)c3)c(NC(=O)NC(C)(C)C)nc2n1 [PD173074] (first compound 0.01 µM, partner dose 0.1 µM) | 98.2 | 44 | 47.7 | 84 | 126 | 199 | 95.4 | 62.3 | 73.3 |
| O=C(Nc1cccc(Cl)c1)Nc1ncc(CCNc2ncnc3ccsc23)s1 + O=c1cc(-c2cccc3c2Sc2ccccc2S3)oc(N2CCOCC2)c1 [KU55933] (first compound 0.0008 µM, partner dose 1 µM) | 228 | 197 | 191 | 6.62 | 43.3 | 107 | 80.4 | 51.5 | 101 |
| Nc1cccc2c1CN(C1CCC(=O)NC1=O)C2=O (stereo not given) [lenalidomide] + N#Cc1c(O)c2c(-c3ccc(-c4ccccc4O)cc3)csc2[nH]c1=O [A769662] (first compound 1 µM, partner dose 2 µM) | 71 | 135 | 78.4 | 147 | 111 | 127 | 83.6 | 86.7 | 66.4 |
| C=CCn1c(=O)c2cnc(Nc3ccc(N4CCN(C)CC4)cc3)nc2n1-c1cccc(C(C)(C)O)n1 + CCCCCCCCCCCC1=C(O)C(=O)C=C(O)C1=O [Embelin] (first compound 0.02 µM, partner dose 1.2 µM) | 68.9 | 139 | 144 | 308 | 63.7 | 150 | 118 | 67.2 | 82.9 |
| CC(C)(C)c1cnc(CSc2cnc(NC(=O)C3CCNCC3)s2)o1 + Oc1cc(-c2nc(-c3ccccc3)[nH]c2-c2ccncc2)ccc1Cl [L779450] (first compound 0.01 µM, partner dose 0.2 µM) | 64 | 64.1 | 137 | 252 | 99.6 | 79.3 | 98.8 | 109 | 70.5 |
| Nc1cccc2c1CN(C1CCC(=O)NC1=O)C2=O (stereo not given) [lenalidomide] + O=S(=O)(c1ccccc1)N(CC(F)(F)F)c1ccc(C(O)(C(F)(F)F)C(F)(F)F)cc1 [T0901317] (first compound 1 µM, partner dose 1.4 µM) | 45.9 | 74.7 | 114 | 143 | 102 | 180 | 193 | 60.8 | 77.3 |
| O=C(Nc1cccc(Cl)c1)Nc1ncc(CCNc2ncnc3ccsc23)s1 + O=C(O)C(=O)Nc1sc2c(c1C(=O)O)CCNC2 [TCS401] (first compound 0.0008 µM, partner dose 1.66667 µM) | 75 | 123 | 77.1 | 140 | 39.1 | 439 | 97 | 63.6 | 59.1 |
| COc1cc(Nc2ncc(F)c(Nc3ccc4c(n3)NC(=O)C(C)(C)O4)n2)cc(OC)c1OC [Tamatinib] + O=C(Nc1ccccc1)c1cc([N+](=O)[O-])ccc1Cl [GW9662] (first compound 0.4 µM, partner dose 2 µM) | 309 | 163 | 52.5 | 165 | 118 | 132 | 102 | 146 | 130 |
| Cn1nnc2c(C(N)=O)ncn2c1=O [temozolomide] + N#Cc1c(O)c2c(-c3ccc(-c4ccccc4O)cc3)csc2[nH]c1=O [A769662] (first compound 2 µM, partner dose 2 µM) | 84.8 | 120 | 68.2 | 86.2 | 76.8 | 79.1 | 121 | 31.8 | 86.7 |
| CC1(C)NC(=O)N(c2ccc([N+](=O)[O-])c(C(F)(F)F)c2)C1=O [nilutamide] + COc1ccc(COc2ccc(Cc3cnc(N)nc3N)cc2OC)cc1 [GW2580] (first compound 1 µM, partner dose 1 µM) | 73.4 | 48.7 | 25.2 | 57.6 | 152 | 44.9 | 68.1 | 147 | 106 |
| Cn1cncc1[C@@](N)(c1ccc(Cl)cc1)c1ccc2c(c1)c(-c1cccc(Cl)c1)cc(=O)n2C [tipifarnib] + COc1cc(N2CCC(N3CCN(C)CC3)CC2)ccc1Nc1ncc(Cl)c(Nc2ccccc2S(=O)(=O)C(C)C)n1 [NVP-TAE684] (first compound 0.01 µM, partner dose 0.08 µM) | 98 | 240 | 368 | 294 | 183 | 328 | 103 | 40 | 90.1 |
| Nc1cccc2c1CN(C1CCC(=O)NC1=O)C2=O (stereo not given) [lenalidomide] + Oc1nc(-c2ccc(C(F)(F)F)cc2)nc2c1CSCC2 [XAV939] (first compound 1 µM, partner dose 2 µM) | 188 | 147 | 146 | 74.8 | 65.8 | 146 | 93.2 | 60.2 | 87.6 |
| CC(C)(C)c1cnc(CSc2cnc(NC(=O)C3CCNCC3)s2)o1 + COc1cc(N2CCC(N3CCN(C)CC3)CC2)ccc1Nc1ncc(Cl)c(Nc2ccccc2S(=O)(=O)C(C)C)n1 [NVP-TAE684] (first compound 0.01 µM, partner dose 0.08 µM) | 158 | 57.1 | 96.1 | 137 | 135 | 139 | 111 | 48.3 | 93.3 |
| COc1cc(Nc2ncc(F)c(Nc3ccc4c(n3)NC(=O)C(C)(C)O4)n2)cc(OC)c1OC [Tamatinib] + N#Cc1c(O)c2c(-c3ccc(-c4ccccc4O)cc3)csc2[nH]c1=O [A769662] (first compound 0.4 µM, partner dose 2 µM) | 78.6 | 62.7 | 189 | 159 | 103 | 128 | 105 | 56.7 | 163 |
| Cc1nc(Nc2ncc(C(=O)Nc3c(C)cccc3Cl)s2)cc(N2CCN(CCO)CC2)n1 [dasatanib] + COC(=O)c1sccc1S(=O)(=O)Nc1ccc(Nc2ccccc2)cc1OC [GSK0660] (first compound 0.004 µM, partner dose 1 µM) | 37 | 141 | 83.1 | 34.7 | 71.1 | 220 | 111 | 49.7 | 52.6 |
| Cn1cncc1[C@@](N)(c1ccc(Cl)cc1)c1ccc2c(c1)c(-c1cccc(Cl)c1)cc(=O)n2C [tipifarnib] + Oc1cc(-c2nc(-c3ccccc3)[nH]c2-c2ccncc2)ccc1Cl [L779450] (first compound 0.01 µM, partner dose 0.2 µM) | 90.9 | 86.6 | 99.1 | 174 | 90.5 | 630 | 114 | 26 | 96.7 |
| C[C@@H]1CCN(C(=O)CC#N)C[C@@H]1N(C)c1ncnc2[nH]ccc12 + O=S(=O)(c1ccccc1)N(CC(F)(F)F)c1ccc(C(O)(C(F)(F)F)C(F)(F)F)cc1 [T0901317] (first compound 1 µM, partner dose 1.4 µM) | 87.7 | 117 | 23.2 | 52.7 | 70.6 | 69.5 | 113 | 32.1 | 92.2 |
| CO[C@@H]1[C@H](N(C)C(=O)c2ccccc2)C[C@H]2O[C@]1(C)n1c3ccccc3c3c4c(c5c6ccccc6n2c5c31)C(=O)NC4 [Midostaurin] + Cn1cc(/C=C2\C(=O)Nc3cccnc32)c2ccccc21 [GW441756] (first compound 0.08 µM, partner dose 0.4 µM) | 34.8 | 208 | 113 | 160 | 91 | 65.7 | 86.9 | 188 | 72.3 |
| Cn1c(Nc2ccc(C(F)(F)F)cc2)nc2cc(Oc3ccnc(-c4ncc(C(F)(F)F)[nH]4)c3)ccc21 + CC(C)CCN1c2nc(Nc3cc(F)c(O)c(F)c3)ncc2N(C)C(=O)C1C [BID1870] (first compound 0.08 µM, partner dose 0.2 µM) | 145 | 373 | 107 | 566 | 49.9 | 93.1 | 99.1 | 51.8 | 127 |
| Cc1cc(N2CCOCC2)cc2[nH]c(-c3c(NC[C@@H](O)c4cccc(Cl)c4)cc[nH]c3=O)nc12 + COc1ccc2c(c1)CCC1C2CCC2(C)C(NCCCCCCN3C(=O)C=CC3=O)CCC12 [U73122] (first compound 0.2 µM, partner dose 0.4 µM) | 88.7 | 115 | 116 | 258 | 317 | 322 | 227 | 116 | 42.4 |
| CC(C)(C)c1cnc(CSc2cnc(NC(=O)C3CCNCC3)s2)o1 + Cn1cc(/C=C2\C(=O)Nc3cccnc32)c2ccccc21 [GW441756] (first compound 0.01 µM, partner dose 0.4 µM) | 27 | 162 | 69.4 | 93.6 | 115 | 94.7 | 95.4 | 52.6 | 61.3 |
| Cc1nc(Nc2ncc(C(=O)Nc3c(C)cccc3Cl)s2)cc(N2CCN(CCO)CC2)n1 [dasatanib] + COc1ccc2c(c1)CCC1C2CCC2(C)C(NCCCCCCN3C(=O)C=CC3=O)CCC12 [U73122] (first compound 0.004 µM, partner dose 0.4 µM) | 51.6 | 66.8 | 72.2 | 221 | 407 | 128 | 116 | 143 | 73.4 |
| Cn1nnc2c(C(N)=O)ncn2c1=O [temozolomide] + O=C1NC(=O)/C(=C/c2ccc(-c3ccc(F)cc3O)o2)S1 [AS252424] (first compound 2 µM, partner dose 1 µM) | 33.2 | 136 | 81.3 | 334 | 110 | 45.4 | 103 | 85.6 | 78.3 |

Limited to cleaved PARP positive nuclei fraction [5] [%], cleaved PARP positive nuclei fraction [3] [%] and cleaved PARP positive nuclei fraction [8] [%] (two entries from above):

| Structure (SMILES) | cleaved PARP positive nuclei fraction [5] [%] | cleaved PARP positive nuclei fraction [3] [%] | cleaved PARP positive nuclei fraction [8] [%] |
| --- | --- | --- | --- |
| Cn1cncc1[C@@](N)(c1ccc(Cl)cc1)c1ccc2c(c1)c(-c1cccc(Cl)c1)cc(=O)n2C [tipifarnib] + Oc1cc(-c2nc(-c3ccccc3)[nH]c2-c2ccncc2)ccc1Cl [L779450] (first compound 0.01 µM, partner dose 0.2 µM) | 90.5 | 99.1 | 26 |
| Cn1c(Nc2ccc(C(F)(F)F)cc2)nc2cc(Oc3ccnc(-c4ncc(C(F)(F)F)[nH]4)c3)ccc21 + CC(C)CCN1c2nc(Nc3cc(F)c(O)c(F)c3)ncc2N(C)C(=O)C1C [BID1870] (first compound 0.08 µM, partner dose 0.2 µM) | 49.9 | 107 | 51.8 |
